This data set can be described thus: Assessment of plasma lipids and body weight after pIpC treatment. The class given is in vivo, mouse. Here is the method:
Female 6-8 week-old of both MTP^pflox/floxMx1Cre mice and WT B6 mice that had been injected intraperitoneally with either PBS as control or 500 μg polyinosinic-polycytidylic ribonucleic acid (pIpC, Sigma, St. Louis, Mo.) in PBS every other day for a total of four doses were sacrificed one or 10 days after the last pIpC injection at which time sera was obtained from peripheral blood. The serum was subjected to total cholesterol and triglyceride assays at the clinical laboratory of Brigham and Women's Hospital (Boston, Mass.).
To further substantiate a direct biochemical relationship between CD1d and MTP, the effects on CD1d expression and function was examined in a conditional MTP-deficient mouse model which contains a “floxed” MTPp gene (MTPp^flox/flox) that had been intercrossed with mice expressing Mx1 promoter controlled, Cre-recombinase (Raabe, M. et al. J. Clin. Invest. 103, 1287-1298 (1999); Bjorkegren, J., Beigneux, A., Bergo, M. O., Maher, J. J. & Young, S. G. J. Biol. Chem. 277, 5476-5483 (2002)). The Mx1 promoter is induced by interferon-inducing substances such as polyinosinic-polycytidylic acid (pIpC) (Raabe, M. et al. J. Clin. Invest. 103, 1287-1298 (1999); Bjorkegren, J., Beigneux, A., Bergo, M. O., Maher, J. J. & Young, S. G. J. Biol. Chem. 277, 5476-5483 (2002); Ralf, K., Schwenk, F., Aguet, M. & Rajewsky, K. Science. 269, 1427-1429 (1995)) such that treatment of MTPp^flox/floxMx1Cre mice with pIpC leads to deletion of the MTPp gene (MTPp^Δ/Δ) primarily within the liver, spleen and intestine providing a degree of tissue specificity to the gene deletion. As previously reported, treatment of 6-10 week old MTPp^flox/floxMx1Cre mice (or MTP^flox/floxMx1Cre mice) with pIpC caused progressive hepatic steatosis (1C) and decreases in serum triglyceride and cholesterol levels (Table 5) in association with decreased MTP mRNA levels as defined by RT-PCR (FIG. 1D) and protein levels (FIG. 1E) in liver and colon.

As for “polyinosinic-polycytidylic ribonucleic acid [pIpC]”, the Body weight is, setting by setting: (C57BL/6J mice, 1 day after treatment) 21.5 ± 0.7 g; (C57BL/6J mice, 10 days after treatment) 20.7 ± 0.7 g; (MTPflox/floxMx1Cre mice, 1 day after treatment) 21.8 ± 1.0 g; (MTPflox/floxMx1Cre mice, 10 days after treatment) 21.8 ± 1.0 g.

The values are drawn from patent US20050234073A1, “Methods of inhibiting inflammation” (priority 2003, published 2005).
